Source: the supplement of paper PMC10849652
The other results are listed elsewhere or left out.

Protein sequences, listed by entry. Tags and fused reporters are not part of them. Lines headed by an entry give the natural chain unless they say otherwise; changes in a name come on top.
UniProt P26599: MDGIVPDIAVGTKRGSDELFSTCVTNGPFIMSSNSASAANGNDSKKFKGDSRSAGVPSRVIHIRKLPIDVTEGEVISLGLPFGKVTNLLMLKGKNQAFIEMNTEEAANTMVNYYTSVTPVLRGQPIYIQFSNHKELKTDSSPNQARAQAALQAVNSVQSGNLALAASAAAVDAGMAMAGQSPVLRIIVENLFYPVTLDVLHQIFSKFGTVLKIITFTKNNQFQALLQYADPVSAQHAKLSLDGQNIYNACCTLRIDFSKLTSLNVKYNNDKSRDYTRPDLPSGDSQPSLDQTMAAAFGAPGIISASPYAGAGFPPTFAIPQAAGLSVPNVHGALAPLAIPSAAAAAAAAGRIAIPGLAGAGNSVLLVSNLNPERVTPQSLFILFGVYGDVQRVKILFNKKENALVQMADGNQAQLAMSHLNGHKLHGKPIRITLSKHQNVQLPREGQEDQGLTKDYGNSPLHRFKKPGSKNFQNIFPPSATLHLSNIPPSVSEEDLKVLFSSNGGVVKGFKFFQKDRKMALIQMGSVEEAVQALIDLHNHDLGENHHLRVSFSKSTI
UniProt P25787: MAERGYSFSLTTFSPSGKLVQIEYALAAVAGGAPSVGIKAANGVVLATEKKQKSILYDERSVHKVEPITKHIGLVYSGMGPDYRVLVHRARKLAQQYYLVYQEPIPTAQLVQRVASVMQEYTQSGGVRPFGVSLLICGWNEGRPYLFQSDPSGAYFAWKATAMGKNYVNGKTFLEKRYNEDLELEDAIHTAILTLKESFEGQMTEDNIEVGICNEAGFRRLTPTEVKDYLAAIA
UniProt P53801: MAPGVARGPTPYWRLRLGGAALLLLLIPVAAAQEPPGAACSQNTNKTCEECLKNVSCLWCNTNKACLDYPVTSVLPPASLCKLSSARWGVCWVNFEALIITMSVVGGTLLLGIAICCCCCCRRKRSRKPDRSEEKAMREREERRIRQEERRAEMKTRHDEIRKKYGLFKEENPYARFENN
UniProt Q06323: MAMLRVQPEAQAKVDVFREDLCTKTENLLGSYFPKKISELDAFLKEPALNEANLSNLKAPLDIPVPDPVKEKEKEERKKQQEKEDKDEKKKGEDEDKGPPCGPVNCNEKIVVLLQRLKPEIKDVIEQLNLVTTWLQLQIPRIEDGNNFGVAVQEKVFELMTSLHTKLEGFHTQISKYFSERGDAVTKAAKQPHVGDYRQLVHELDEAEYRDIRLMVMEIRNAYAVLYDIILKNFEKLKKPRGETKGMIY
UniProt O95997: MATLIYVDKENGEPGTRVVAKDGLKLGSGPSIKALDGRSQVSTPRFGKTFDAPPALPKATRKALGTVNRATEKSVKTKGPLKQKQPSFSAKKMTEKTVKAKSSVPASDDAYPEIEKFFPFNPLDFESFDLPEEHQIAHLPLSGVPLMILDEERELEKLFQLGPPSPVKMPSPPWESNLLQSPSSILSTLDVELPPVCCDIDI
UniProt P29350: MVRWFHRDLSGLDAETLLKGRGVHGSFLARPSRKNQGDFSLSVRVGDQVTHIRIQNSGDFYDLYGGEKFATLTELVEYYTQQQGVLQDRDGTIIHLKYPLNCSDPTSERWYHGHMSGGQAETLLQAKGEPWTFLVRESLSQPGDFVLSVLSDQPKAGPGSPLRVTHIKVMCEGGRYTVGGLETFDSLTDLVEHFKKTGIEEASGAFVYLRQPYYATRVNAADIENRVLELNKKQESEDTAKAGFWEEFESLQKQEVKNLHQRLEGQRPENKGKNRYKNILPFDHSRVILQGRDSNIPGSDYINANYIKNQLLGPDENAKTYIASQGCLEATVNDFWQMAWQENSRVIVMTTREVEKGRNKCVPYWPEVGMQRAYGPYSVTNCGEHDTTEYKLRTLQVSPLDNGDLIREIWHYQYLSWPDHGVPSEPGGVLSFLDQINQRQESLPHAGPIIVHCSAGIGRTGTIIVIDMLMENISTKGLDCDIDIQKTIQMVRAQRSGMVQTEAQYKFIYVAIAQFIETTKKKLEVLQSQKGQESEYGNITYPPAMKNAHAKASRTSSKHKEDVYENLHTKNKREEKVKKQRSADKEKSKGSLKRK
UniProt Q92530: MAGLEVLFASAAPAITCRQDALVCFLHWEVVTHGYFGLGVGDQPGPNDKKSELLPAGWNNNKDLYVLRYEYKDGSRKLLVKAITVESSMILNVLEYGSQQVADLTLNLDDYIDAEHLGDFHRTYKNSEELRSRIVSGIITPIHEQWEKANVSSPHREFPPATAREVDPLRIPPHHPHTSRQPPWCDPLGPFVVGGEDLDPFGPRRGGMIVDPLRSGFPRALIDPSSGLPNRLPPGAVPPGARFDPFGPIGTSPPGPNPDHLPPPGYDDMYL
UniProt Q13332: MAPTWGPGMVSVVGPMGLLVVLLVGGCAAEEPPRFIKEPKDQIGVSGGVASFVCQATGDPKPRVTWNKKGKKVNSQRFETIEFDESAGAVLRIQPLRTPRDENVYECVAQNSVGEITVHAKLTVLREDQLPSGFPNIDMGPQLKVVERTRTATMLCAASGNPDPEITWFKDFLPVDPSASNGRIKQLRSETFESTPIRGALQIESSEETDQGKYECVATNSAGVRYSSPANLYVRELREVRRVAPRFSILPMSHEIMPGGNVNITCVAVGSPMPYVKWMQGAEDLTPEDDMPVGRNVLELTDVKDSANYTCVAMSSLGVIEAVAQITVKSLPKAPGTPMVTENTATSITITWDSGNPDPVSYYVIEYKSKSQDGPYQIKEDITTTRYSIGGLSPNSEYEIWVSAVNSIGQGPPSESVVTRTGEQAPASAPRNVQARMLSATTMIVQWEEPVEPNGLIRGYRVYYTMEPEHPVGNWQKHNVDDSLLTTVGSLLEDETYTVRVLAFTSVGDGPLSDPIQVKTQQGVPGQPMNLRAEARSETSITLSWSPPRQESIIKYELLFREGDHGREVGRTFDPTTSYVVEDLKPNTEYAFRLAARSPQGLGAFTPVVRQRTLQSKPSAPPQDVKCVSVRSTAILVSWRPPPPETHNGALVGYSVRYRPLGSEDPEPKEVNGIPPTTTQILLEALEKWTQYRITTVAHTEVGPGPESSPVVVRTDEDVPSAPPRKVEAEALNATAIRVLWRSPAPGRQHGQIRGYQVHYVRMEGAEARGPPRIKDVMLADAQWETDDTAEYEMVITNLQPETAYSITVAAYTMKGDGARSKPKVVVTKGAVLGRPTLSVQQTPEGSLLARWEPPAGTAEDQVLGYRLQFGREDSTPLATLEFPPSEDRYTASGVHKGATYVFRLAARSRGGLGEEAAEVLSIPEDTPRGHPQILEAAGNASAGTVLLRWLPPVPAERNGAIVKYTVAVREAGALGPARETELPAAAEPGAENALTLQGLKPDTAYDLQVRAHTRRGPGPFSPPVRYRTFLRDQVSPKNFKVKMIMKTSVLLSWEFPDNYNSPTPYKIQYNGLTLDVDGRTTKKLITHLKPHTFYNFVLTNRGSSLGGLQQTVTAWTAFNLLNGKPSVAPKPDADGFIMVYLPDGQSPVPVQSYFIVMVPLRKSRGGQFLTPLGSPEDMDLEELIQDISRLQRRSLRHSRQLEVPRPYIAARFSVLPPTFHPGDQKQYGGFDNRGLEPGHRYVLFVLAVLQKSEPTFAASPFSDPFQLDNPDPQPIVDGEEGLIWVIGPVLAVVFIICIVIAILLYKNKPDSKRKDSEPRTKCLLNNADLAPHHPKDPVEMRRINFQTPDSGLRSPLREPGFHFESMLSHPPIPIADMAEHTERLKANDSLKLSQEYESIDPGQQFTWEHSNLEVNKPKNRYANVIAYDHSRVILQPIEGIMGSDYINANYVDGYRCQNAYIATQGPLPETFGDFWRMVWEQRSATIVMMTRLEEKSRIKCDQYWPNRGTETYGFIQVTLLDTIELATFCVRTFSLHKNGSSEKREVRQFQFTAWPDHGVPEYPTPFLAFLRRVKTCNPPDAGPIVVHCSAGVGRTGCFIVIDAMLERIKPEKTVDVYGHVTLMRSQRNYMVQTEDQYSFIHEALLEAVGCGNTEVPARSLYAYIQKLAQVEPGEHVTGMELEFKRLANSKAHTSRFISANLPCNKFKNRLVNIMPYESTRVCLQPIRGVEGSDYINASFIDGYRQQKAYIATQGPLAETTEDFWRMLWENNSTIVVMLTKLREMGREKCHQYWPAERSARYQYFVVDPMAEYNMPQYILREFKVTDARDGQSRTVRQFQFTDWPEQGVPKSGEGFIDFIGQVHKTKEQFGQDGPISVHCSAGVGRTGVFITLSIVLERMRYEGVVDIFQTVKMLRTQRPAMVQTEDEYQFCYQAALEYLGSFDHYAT
UniProt Q16401: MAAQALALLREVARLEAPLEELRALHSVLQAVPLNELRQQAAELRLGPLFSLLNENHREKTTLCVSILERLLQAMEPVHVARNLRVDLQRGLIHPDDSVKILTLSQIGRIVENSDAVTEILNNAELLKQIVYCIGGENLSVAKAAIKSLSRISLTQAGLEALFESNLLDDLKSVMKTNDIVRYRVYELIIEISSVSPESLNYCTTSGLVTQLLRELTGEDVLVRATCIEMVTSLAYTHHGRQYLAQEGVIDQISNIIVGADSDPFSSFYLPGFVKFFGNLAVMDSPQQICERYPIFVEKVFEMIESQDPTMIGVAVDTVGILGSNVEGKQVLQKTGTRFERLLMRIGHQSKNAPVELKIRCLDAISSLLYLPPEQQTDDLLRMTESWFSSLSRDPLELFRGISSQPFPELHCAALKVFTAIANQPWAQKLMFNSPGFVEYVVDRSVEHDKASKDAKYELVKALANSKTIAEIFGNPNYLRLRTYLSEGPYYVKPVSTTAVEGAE
UniProt Q969U7: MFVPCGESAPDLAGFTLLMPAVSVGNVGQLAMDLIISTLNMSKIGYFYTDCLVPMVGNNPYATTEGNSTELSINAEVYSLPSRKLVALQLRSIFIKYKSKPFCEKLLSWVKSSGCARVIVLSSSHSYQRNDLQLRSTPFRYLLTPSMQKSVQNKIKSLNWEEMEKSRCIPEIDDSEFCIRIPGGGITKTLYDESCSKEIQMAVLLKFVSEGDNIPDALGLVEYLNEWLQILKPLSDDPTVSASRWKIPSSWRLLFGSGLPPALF
UniProt O43242, whole entry, looked up: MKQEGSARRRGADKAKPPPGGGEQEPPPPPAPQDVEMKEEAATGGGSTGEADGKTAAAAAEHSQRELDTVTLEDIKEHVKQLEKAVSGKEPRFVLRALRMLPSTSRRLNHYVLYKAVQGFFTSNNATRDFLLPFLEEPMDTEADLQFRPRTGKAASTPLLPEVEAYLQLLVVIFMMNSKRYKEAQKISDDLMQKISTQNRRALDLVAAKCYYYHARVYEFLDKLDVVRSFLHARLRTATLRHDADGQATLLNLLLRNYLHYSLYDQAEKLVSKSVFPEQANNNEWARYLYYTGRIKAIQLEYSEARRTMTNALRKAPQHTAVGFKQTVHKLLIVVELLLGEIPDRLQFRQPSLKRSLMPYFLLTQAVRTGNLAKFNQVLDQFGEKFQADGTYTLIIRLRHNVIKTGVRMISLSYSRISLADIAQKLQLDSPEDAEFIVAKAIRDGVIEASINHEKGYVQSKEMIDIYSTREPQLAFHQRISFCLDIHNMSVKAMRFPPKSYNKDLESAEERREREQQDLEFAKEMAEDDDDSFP
UniProt Q3MIT2: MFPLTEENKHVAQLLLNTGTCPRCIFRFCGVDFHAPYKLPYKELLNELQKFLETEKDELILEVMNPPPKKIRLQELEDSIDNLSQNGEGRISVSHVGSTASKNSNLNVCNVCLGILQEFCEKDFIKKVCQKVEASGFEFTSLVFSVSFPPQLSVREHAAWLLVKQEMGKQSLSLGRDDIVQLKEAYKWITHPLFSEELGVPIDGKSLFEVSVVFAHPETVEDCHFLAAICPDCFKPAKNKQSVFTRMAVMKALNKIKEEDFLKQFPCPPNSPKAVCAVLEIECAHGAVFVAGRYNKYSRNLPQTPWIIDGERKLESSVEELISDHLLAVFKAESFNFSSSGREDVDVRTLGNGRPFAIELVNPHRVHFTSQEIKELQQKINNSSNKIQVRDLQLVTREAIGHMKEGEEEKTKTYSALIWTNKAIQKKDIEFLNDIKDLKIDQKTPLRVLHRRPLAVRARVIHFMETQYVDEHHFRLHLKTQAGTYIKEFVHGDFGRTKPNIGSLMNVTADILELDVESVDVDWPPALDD
UniProt O75475: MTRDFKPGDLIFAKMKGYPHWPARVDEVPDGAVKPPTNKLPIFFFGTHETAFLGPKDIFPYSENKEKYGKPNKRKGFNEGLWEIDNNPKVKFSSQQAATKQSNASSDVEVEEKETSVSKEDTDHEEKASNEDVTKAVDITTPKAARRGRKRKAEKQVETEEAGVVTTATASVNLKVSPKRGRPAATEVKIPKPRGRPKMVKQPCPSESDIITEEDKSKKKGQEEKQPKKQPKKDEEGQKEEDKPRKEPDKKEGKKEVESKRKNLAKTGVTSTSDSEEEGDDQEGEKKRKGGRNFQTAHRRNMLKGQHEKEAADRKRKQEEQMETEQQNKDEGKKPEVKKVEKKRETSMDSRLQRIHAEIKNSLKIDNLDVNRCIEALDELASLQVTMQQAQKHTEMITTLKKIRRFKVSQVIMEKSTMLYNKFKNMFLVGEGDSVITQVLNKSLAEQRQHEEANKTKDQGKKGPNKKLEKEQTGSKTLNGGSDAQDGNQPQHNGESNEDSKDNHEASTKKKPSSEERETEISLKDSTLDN

Columns and labels:
Test in all cases: log2 fold change, soluble protein after heating vs DMSO (PISA); higher = thermal stabilisation; K562 lysate, 10 uM; active = over 0.2 and 3.5 SD of the protein, either way, in both replicates (recomputed)
alvocidib = compound: CN1CC[C@H](c2c(O)cc(O)c3c(=O)cc(-c4ccccc4Cl)oc23)[C@H](O)C1 [alvocidib]
Procedure, shortened: (§1)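 Log-two fold change in thermal stability relative to solvent controls is reported from duplicates. For each sample, crude K562 extract from dounce-homogenised pellets in PBS pH 7.4 with 1 mM MgCl2, at 1 mg/mL protein, was treated with 10 μM compound for 30 min. Aliquots heated for 3 min across 48°C-58°C were pooled, brought to 0.5% NP-40 at 4°C and cleared at 21,000xg for 90 min. The supernatant was quantified by TMTpro 16plex LC-MS/MS with channel sums equalised.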

Tubastatin A = compound: CN1CCc2c(c3ccccc3n2Cc2ccc(C(=O)NO)cc2)C1 [Tubastatin A]
Procedure, shortened: as §1

[1] = compound: CNC(=O)C1=CC=CC=C1NC2=NC(=NC=C2Cl)NC3=C(C=C(C=C3)N4CCOCC4)OC
Procedure, shortened: as §1

defactinib = compound: CNC(=O)c1ccc(Nc2ncc(C(F)(F)F)c(NCc3nccnc3N(C)S(C)(=O)=O)n2)cc1 [defactinib]
Procedure, shortened: as §1

[2] = compound: CNc1nc(-c2ccc3c(N)n[nH]c3c2)cc(N2C[C@@H](C(=O)NC3CCCCC3)CC[C@H]2C)n1
Procedure, shortened: as §1

encorafenib = compound: COC(=O)N[C@@H](C)CNc1nccc(-c2cn(C(C)C)nc2-c2cc(Cl)cc(NS(C)(=O)=O)c2F)n1 [encorafenib]
Procedure, shortened: as §1

[3] = compound: COC(=O)[C@H](CCSC)NC(=O)C1=C(C=C(C=C1)NC[C@H](CS)N)C2=CC=CC=C2
Procedure, shortened: as §1

alisertib = compound: COc1cc(Nc2ncc3c(n2)-c2ccc(Cl)cc2C(c2c(F)cccc2OC)=NC3)ccc1C(=O)O [alisertib]
Procedure, shortened: as §1

[4] = compound: COc1cc2nc(-c3cc(F)ccc3O)nc(N[C@@H]3CNC[C@H]3C(C)(C)O)c2cc1OC
Procedure, shortened: as §1

gefitinib = compound: COc1cc2ncnc(Nc3ccc(F)c(Cl)c3)c2cc1OCCCN1CCOCC1 [gefitinib]
Procedure, shortened: as §1

lapatinib = compound: CS(=O)(=O)CCNCc1ccc(-c2ccc3ncnc(Nc4ccc(OCc5cccc(F)c5)c(Cl)c4)c3c2)o1 [lapatinib]
Procedure, shortened: as §1

pictilisib = compound: CS(=O)(=O)N1CCN(Cc2cc3nc(-c4cccc5[nH]ncc45)nc(N4CCOCC4)c3s2)CC1 [pictilisib]
Procedure, shortened: as §1

crizotinib = compound: C[C@@H](Oc1cc(-c2cnn(C3CCNCC3)c2)cnc1N)c1c(Cl)ccc(F)c1Cl [crizotinib]
Procedure, shortened: as §1

[5] = compound: C[C@H](C1=CC=C(C=C1)C(=O)NC2=C3C=CNC3=NC=C2)N
Procedure, shortened: as §1

duvelisib = compound: C[C@H](Nc1ncnc2nc[nH]c12)c1cc2cccc(Cl)c2c(=O)n1-c1ccccc1 [duvelisib]
Procedure, shortened: as §1

gandotinib = compound: Cc1cc(Nc2cc(CN3CCOCC3)c3nc(C)c(Cc4ccc(Cl)cc4F)n3n2)n[nH]1 [gandotinib]
Procedure, shortened: as §1

tozasertib = compound: Cc1cc(Nc2cc(N3CCN(C)CC3)nc(Sc3ccc(NC(=O)C4CC4)cc3)n2)n[nH]1 [tozasertib]
Procedure, shortened: as §1

doramapimod = compound: Cc1ccc(-n2nc(C(C)(C)C)cc2NC(=O)Nc2ccc(OCCN3CCOCC3)c3ccccc23)cc1 [doramapimod]
Procedure, shortened: as §1

bafetinib = compound: Cc1ccc(NC(=O)c2ccc(CN3CC[C@H](N(C)C)C3)c(C(F)(F)F)c2)cc1Nc1nccc(-c2cncnc2)n1 [bafetinib]
Procedure, shortened: as §1

[6] = compound: Cc1cccc(CC(=O)N2CCc3c2ccc(-c2cn(C)c4ncnc(N)c24)c3F)n1
Procedure, shortened: as §1

Measured: log2 fold change

PTBP1 (UniProt P26599)
inactive: alvocidib 0.011 | Tubastatin A 0.007 | [1] 0.04 | defactinib 0.015 | [2] 0.113 | encorafenib -0.034 | [3] 0.064 | alisertib 0.02 | [4] -0.007 | gefitinib -0.069 | lapatinib 0.007 | pictilisib 0.003 | crizotinib -0.02 | [5] 0.022 | duvelisib -0.053 | gandotinib -0.014 | tozasertib -0.054 | doramapimod 0.035 | bafetinib 0.026 | [6] -0.024

PSMA2 (UniProt P25787)
inactive: alvocidib -0.014 | Tubastatin A 0.051 | [1] -0.008 | defactinib 0.013 | [2] -0.001 | encorafenib -0.008 | [3] -0.003 | alisertib 0.009 | [4] 0.03 | gefitinib -0.01 | lapatinib -0.04 | pictilisib -0.003 | crizotinib 0.025 | [5] 0.029 | duvelisib 0.011 | gandotinib 0.011 | tozasertib 0.002 | doramapimod -0.016 | bafetinib -0.002 | [6] -0.029

PTTG1IP (UniProt P53801)
inactive: alvocidib -0.01 | Tubastatin A -0.006 | [1] -0.02 | defactinib -0.218 | [2] -0.029 | encorafenib -0.077 | [3] -0.237 | alisertib -0.093 | [4] 0 | gefitinib 0.323 | lapatinib -0.001 | pictilisib 0.008 | crizotinib 0.154 | [5] 0.002 | duvelisib 0.005 | gandotinib 0.19 | tozasertib -0.054 | doramapimod -0.03 | bafetinib 0.019 | [6] -0.159

PSME1 (UniProt Q06323)
inactive: alvocidib 0.03 | Tubastatin A -0.009 | [1] 0.025 | defactinib 0.027 | [2] -0.033 | encorafenib -0.011 | [3] -0.005 | alisertib -0.007 | [4] 0.013 | gefitinib -0.005 | lapatinib 0.009 | pictilisib -0.005 | crizotinib 0.065 | [5] 0.037 | duvelisib 0.007 | gandotinib -0.03 | tozasertib 0.008 | doramapimod 0.032 | bafetinib 0.068 | [6] -0.08

Reprinted from the listing (two entries):
PTBP1 (UniProt P26599)
inactive: alvocidib 0.011 | Tubastatin A 0.007 | [1] 0.04 | defactinib 0.015 | [2] 0.113 | encorafenib -0.034 | [3] 0.064 | alisertib 0.02 | [4] -0.007 | gefitinib -0.069 | lapatinib 0.007 | pictilisib 0.003 | crizotinib -0.02 | [5] 0.022 | duvelisib -0.053 | gandotinib -0.014 | tozasertib -0.054 | doramapimod 0.035 | bafetinib 0.026 | [6] -0.024

PSMA2 (UniProt P25787)
inactive: alvocidib -0.014 | Tubastatin A 0.051 | [1] -0.008 | defactinib 0.013 | [2] -0.001 | encorafenib -0.008 | [3] -0.003 | alisertib 0.009 | [4] 0.03 | gefitinib -0.01 | lapatinib -0.04 | pictilisib -0.003 | crizotinib 0.025 | [5] 0.029 | duvelisib 0.011 | gandotinib 0.011 | tozasertib 0.002 | doramapimod -0.016 | bafetinib -0.002 | [6] -0.029

(cont.)

PTTG1 (UniProt O95997)
inactive: alvocidib -0.024 | Tubastatin A -0.117 | [1] 0.042 | defactinib 0.087 | [2] -0.097 | encorafenib 0.117 | [3] 0.007 | alisertib -0.022 | [4] -0.05 | gefitinib 0.059 | lapatinib 0.029 | pictilisib -0.085 | crizotinib -0.136 | [5] -0.041 | duvelisib 0.005 | gandotinib 0.143 | tozasertib 0.008 | doramapimod 0.135 | bafetinib -0.102 | [6] 0.039

PTPN6 isoform 4 (UniProt P29350)
inactive: alvocidib -0.12 | Tubastatin A -0.185 | [1] 0.037 | defactinib -0.015 | [2] -0.008 | encorafenib 0.028 | [3] 0.261 | alisertib -0.218 | [4] -0.034 | gefitinib 0.045 | lapatinib -0.227 | pictilisib -0.058 | crizotinib 0.02 | [5] -0.038 | duvelisib -0.013 | gandotinib -0.28 | tozasertib 0 | doramapimod 0.015 | bafetinib -0.278 | [6] 0.135

PSMF1 (UniProt Q92530)
inactive: alvocidib -0.121 | Tubastatin A -0.006 | [1] -0.001 | defactinib -0.022 | [2] 0.043 | encorafenib 0.004 | [3] -0.035 | alisertib -0.012 | [4] 0.002 | gefitinib 0.007 | lapatinib -0.004 | pictilisib 0.068 | crizotinib -0.026 | [5] -0.193 | duvelisib -0.011 | gandotinib 0.182 | tozasertib 0.003 | doramapimod 0.062 | bafetinib 0.051 | [6] 0.144

PRPF8 (UniProt Q6P2Q9)
inactive: alvocidib 0.002 | Tubastatin A -0.035 | [1] -0.008 | defactinib -0.02 | [2] -0.013 | encorafenib 0.029 | [3] 0.011 | alisertib 0.005 | [4] -0.005 | gefitinib 0.01 | lapatinib -0.012 | pictilisib -0.012 | crizotinib -0.024 | [5] 0.013 | duvelisib 0.023 | gandotinib -0.078 | tozasertib -0.002 | doramapimod 0.009 | bafetinib -0.03 | [6] 0.028

PTPRS isoform 3 (UniProt Q13332)
inactive: alvocidib 0.016 | Tubastatin A 0.047 | [1] -0.039 | defactinib 0.012 | [2] 0.01 | encorafenib -0.017 | [3] 0.038 | alisertib -0.019 | [4] -0.061 | gefitinib 0.101 | lapatinib 0.106 | pictilisib -0.098 | crizotinib 0.021 | [5] 0.01 | duvelisib 0.059 | gandotinib 0.033 | tozasertib 0.086 | doramapimod -0.028 | bafetinib 0.013 | [6] 0.023

PSMD5 (UniProt Q16401)
inactive: alvocidib -0.016 | Tubastatin A -0.036 | [1] -0.026 | defactinib -0.003 | [2] 0 | encorafenib 0.004 | [3] -0.035 | alisertib 0.013 | [4] -0.011 | gefitinib -0.014 | lapatinib -0.006 | pictilisib -0.003 | crizotinib -0.019 | [5] 0.03 | duvelisib -0.007 | gandotinib -0.067 | tozasertib -0.012 | doramapimod 0.015 | bafetinib 0.007 | [6] 0.017

PSMG2 (UniProt Q969U7)
inactive: alvocidib -0.027 | Tubastatin A 0.063 | [1] -0.004 | defactinib 0.003 | [2] 0.002 | encorafenib 0.01 | [3] -0.053 | alisertib 0.007 | [4] -0.004 | gefitinib -0.024 | lapatinib -0.008 | pictilisib -0.041 | crizotinib 0.012 | [5] -0.057 | duvelisib 0.036 | gandotinib 0.029 | tozasertib 0.01 | doramapimod 0.039 | bafetinib 0.065 | [6] -0.01

PVR (UniProt P15151)
inactive: alvocidib -0.02 | Tubastatin A -0.035 | [1] 0.01 | defactinib 0.214 | [2] -0.06 | encorafenib 0.085 | [3] -0.153 | alisertib -0.022 | [4] 0.026 | gefitinib 0.052 | lapatinib 0.036 | pictilisib -0.014 | crizotinib 0.054 | [5] -0.01 | duvelisib 0.113 | gandotinib 0.057 | tozasertib 0.031 | doramapimod 0.005 | bafetinib -0.038 | [6] 0.034

PSMD3 (UniProt O43242)
inactive: alvocidib 0.017 | Tubastatin A 0.008 | [1] -0.017 | defactinib -0.001 | [2] 0.011 | encorafenib 0.022 | [3] 0.028 | alisertib 0.014 | [4] 0 | gefitinib 0.006 | lapatinib -0.032 | pictilisib 0.005 | crizotinib 0.004 | [5] -0.008 | duvelisib -0.011 | gandotinib -0.044 | tozasertib -0.018 | doramapimod -0.005 | bafetinib -0.04 | [6] -0.016

PRPS1 (UniProt B1ALA9)
inactive: alvocidib 0.009 | Tubastatin A 0.026 | [1] 0.009 | defactinib 0.034 | [2] 0.028 | encorafenib 0.035 | [3] -0.064 | alisertib 0.037 | [4] 0.01 | gefitinib -0.05 | lapatinib -0.004 | pictilisib -0.014 | crizotinib 0.015 | [5] -0.001 | duvelisib 0.016 | gandotinib -0.025 | tozasertib 0.034 | doramapimod -0.035 | bafetinib -0.036 | [6] 0.016

PUS10 (UniProt Q3MIT2)
inactive: alvocidib 0.033 | Tubastatin A -0.035 | [1] 0.076 | defactinib -0.064 | [2] 0.009 | encorafenib -0.006 | [3] -0.029 | alisertib 0.039 | [4] -0.036 | gefitinib -0.009 | lapatinib 0 | pictilisib 0.04 | crizotinib -0.036 | [5] 0.081 | duvelisib 0.013 | gandotinib -0.059 | tozasertib 0.034 | doramapimod -0.022 | bafetinib 0.017 | [6] -0.033

PSIP1 (UniProt O75475)
inactive: alvocidib 0.022 | Tubastatin A 0.017 | [1] -0.009 | defactinib -0.018 | [2] 0.049 | encorafenib -0.003 | [3] -0.01 | alisertib -0.054 | [4] 0.006 | gefitinib -0.064 | lapatinib -0.014 | pictilisib 0.019 | crizotinib -0.023 | [5] -0.007 | duvelisib 0.003 | gandotinib 0.004 | tozasertib 0.002 | doramapimod 0.017 | bafetinib -0.011 | [6] -0.006
